Measurements reported in PMC9402538, “Rational design of a sensitivity-enhanced tracer for discovering efficient APC–Asef inhibitors” (Nature Communications, 2022).
“And” between values parts separate entries of the source, which are not always exact repeats. Equal values may be shown once. The source gives many values for each of these; only a part stands here. Where a SMILES comes first, the peptide text is derived from it. The star is where a group is joined. Benzoyl(4-OMe) = COc1ccc(C(=O)*)cc1

Test system: SW480 cells
Assay: xCELLigence RTCA-DP migration assay, SW480
Format: cell-based
Settings: 50 μM
Procedure: Real-time cell migration was evaluated using the xCELLigence RTCA-DP system (Roche). Briefly, SW480 cells were serum-starved for 8 h, digested, and resuspended in serum-free medium. The wells in the upper chamber of CIM plate 16 were preequilibrated with 30 μL serum-free medium for 1 h and filled with 100 μL of 4 × 10^4 serum-starved SW480 cells per well. The wells in the lower chamber of CIM plate 16 were filled with complete medium. […] Cell index values were detected every 15 min throughout the procedure, and the data were collected and analyzed with RTCA software (version 2.3).

SMILES: COc1ccc(C(=O)N[C@@H](C)C(=O)NCC(=O)N[C@@H](CCC(=O)O)C(=O)N[C@@H](CO)C(=O)N[C@@H](CC(C)C)C(=O)N[C@@H](Cc2ccc(O)cc2)C(=O)N[C@@H](CCC(=O)O)C(N)=O)cc1 [MAI-516] ({Benzoyl(4-OMe)}-AGESLYE-NH2)
- Cell index (Time 0 h (first reading)): 0
- Cell index (Time 1.86 h): 0.1225 and 0.16 and 0.1054 and 0.1518
- Cell index (Time 2.11 h): 0.0786 and 0.0887 and 0.0517 and 0.0718
- Cell index (Time 2.36 h): 0.0778 and 0.0891 and 0.0546 and 0.0648
- Cell index (Time 2.61 h): 0.0834 and 0.0901 and 0.0611 and 0.0634
- Cell index (Time 3.36 h): 0.0984 and 0.1047 and 0.0757 and 0.0677
- Cell index (Time 3.61 h): 0.1001 and 0.1111 and 0.0772 and 0.068
- Cell index (Time 3.86 h): 0.1064 and 0.1135 and 0.0864 and 0.071
- Cell index (Time 4.11 h): 0.1096 and 0.1206 and 0.0894 and 0.0738
- Cell index (Time 4.36 h): 0.1163 and 0.1258 and 0.0949 and 0.0781
- Cell index (Time 4.61 h): 0.1186 and 0.1315 and 0.1033 and 0.0827
- Cell index (Time 4.86 h): 0.1235 and 0.1381 and 0.1077 and 0.0866
- Cell index (Time 5.11 h): 0.1264 and 0.1412 and 0.1143 and 0.09
- Cell index (Time 5.36 h): 0.1298 and 0.1475 and 0.1176 and 0.0939
- Cell index (Time 5.61 h): 0.1379 and 0.152 and 0.1259 and 0.0992
- Cell index (Time 5.86 h): 0.1421 and 0.1565 and 0.1317 and 0.1026
- Cell index (Time 6.11 h): 0.1432 and 0.1621 and 0.1354 and 0.1072
- Cell index (Time 6.36 h): 0.1479 and 0.1647 and 0.1411 and 0.1107
- Cell index (Time 6.61 h): 0.1525 and 0.1693 and 0.1456 and 0.1162
- Cell index (Time 6.86 h): 0.1569 and 0.1748 and 0.1474 and 0.1194
- Cell index (Time 7.11 h): 0.1604 and 0.1783 and 0.1509 and 0.1235
- Cell index (Time 7.36 h): 0.1616 and 0.1856 and 0.1514 and 0.1272
- Cell index (Time 7.61 h): 0.1665 and 0.188 and 0.1551 and 0.1294
- Cell index (Time 7.86 h): 0.1704 and 0.1911 and 0.1601 and 0.135
- Cell index (Time 8.11 h): 0.1753 and 0.194 and 0.1635 and 0.1388
- Cell index (Time 8.36 h): 0.1752 and 0.1987 and 0.163 and 0.1411
- Cell index (Time 8.61 h): 0.1784 and 0.2022 and 0.1662 and 0.1449
- Cell index (Time 8.86 h): 0.1819 and 0.2057 and 0.1687 and 0.1483
- Cell index (Time 9.11 h): 0.1847 and 0.2086 and 0.1722 and 0.1526
- Cell index (Time 9.36 h): 0.1879 and 0.2118 and 0.175 and 0.1549
- Cell index (Time 9.61 h): 0.1905 and 0.2159 and 0.1775 and 0.1591
- Cell index (Time 9.86 h): 0.1945 and 0.2149 and 0.1815 and 0.1637
- Cell index (Time 10.11 h): 0.1979 and 0.2199 and 0.1851 and 0.165
- Cell index (Time 10.36 h): 0.1977 and 0.2218 and 0.185 and 0.1681
- Cell index (Time 10.61 h): 0.2033 and 0.2251 and 0.1904 and 0.1711
- Cell index (Time 10.86 h): 0.2028 and 0.2274 and 0.1902 and 0.1739
- Cell index (Time 11.11 h): 0.2051 and 0.2299 and 0.192 and 0.1756
- Cell index (Time 11.37 h): 0.2102 and 0.2316 and 0.196 and 0.1783
- Cell index (Time 11.62 h): 0.2124 and 0.2329 and 0.2003 and 0.1822
- Cell index (Time 11.87 h): 0.2123 and 0.238 and 0.1996 and 0.1835
- Cell index (Time 12.12 h): 0.215 and 0.2411 and 0.2009 and 0.1859
- Cell index (Time 12.37 h): 0.2203 and 0.2401 and 0.2064 and 0.1896
- Cell index (Time 12.62 h): 0.2191 and 0.2442 and 0.2052 and 0.1901
- Cell index (Time 12.87 h): 0.2248 and 0.245 and 0.2107 and 0.194
- Cell index (Time 13.12 h): 0.2263 and 0.2481 and 0.2115 and 0.1944
- Cell index (Time 13.37 h): 0.23 and 0.2494 and 0.2159 and 0.1998
- Cell index (Time 13.62 h): 0.2306 and 0.2534 and 0.2189 and 0.2001
- Cell index (Time 13.87 h): 0.2358 and 0.2541 and 0.2221 and 0.2037
- Cell index (Time 14.12 h): 0.2378 and 0.2593 and 0.2231 and 0.2052
- Cell index (Time 14.37 h): 0.2402 and 0.2624 and 0.2263 and 0.2068
- Cell index (Time 14.62 h): 0.2444 and 0.2632 and 0.2302 and 0.2131
- Cell index (Time 14.87 h): 0.2431 and 0.268 and 0.2294 and 0.2132
- Cell index (Time 15.12 h): 0.2476 and 0.2705 and 0.2323 and 0.2163
- Cell index (Time 15.37 h): 0.2502 and 0.2755 and 0.2361 and 0.2174
- Cell index (Time 15.62 h): 0.2556 and 0.2765 and 0.2389 and 0.2205
- Cell index (Time 15.87 h): 0.259 and 0.2799 and 0.2437 and 0.2229
- Cell index (Time 16.12 h): 0.2595 and 0.283 and 0.245 and 0.2238
- Cell index (Time 16.37 h): 0.2621 and 0.2866 and 0.2478 and 0.2283
- Cell index (Time 16.62 h): 0.2699 and 0.286 and 0.2533 and 0.2319
- Cell index (Time 16.87 h): 0.2702 and 0.2918 and 0.2541 and 0.2354
- Cell index (Time 17.12 h): 0.2756 and 0.2938 and 0.2589 and 0.2362
- Cell index (Time 17.37 h): 0.2798 and 0.2964 and 0.2619 and 0.2399
- Cell index (Time 17.62 h): 0.2828 and 0.3007 and 0.265 and 0.2426
- Cell index (Time 17.87 h): 0.2848 and 0.3076 and 0.2647 and 0.2423
- Cell index (Time 18.12 h): 0.2903 and 0.3103 and 0.2731 and 0.2479
- Cell index (Time 18.37 h): 0.292 and 0.3131 and 0.2751 and 0.2498
- Cell index (Time 18.62 h): 0.2954 and 0.3161 and 0.2764 and 0.2544
- Cell index (Time 18.87 h): 0.2986 and 0.3209 and 0.2807 and 0.2557
- Cell index (Time 19.12 h): 0.3022 and 0.3243 and 0.2839 and 0.2588
- Cell index (Time 19.37 h): 0.3081 and 0.3266 and 0.2888 and 0.2628
- Cell index (Time 19.62 h): 0.3118 and 0.3286 and 0.2913 and 0.2675
- Cell index (Time 19.87 h): 0.313 and 0.3352 and 0.2917 and 0.27
- Cell index (Time 20.12 h): 0.316 and 0.3405 and 0.3004 and 0.2735
- Cell index (Time 20.37 h): 0.3218 and 0.3437 and 0.3006 and 0.2761
- Cell index (Time 20.62 h): 0.3273 and 0.3454 and 0.3062 and 0.2792
- Cell index (Time 20.87 h): 0.3311 and 0.3497 and 0.3096 and 0.2815
- Cell index (Time 21.12 h): 0.3323 and 0.3532 and 0.3101 and 0.285
- Cell index (Time 21.37 h): 0.3348 and 0.3601 and 0.3145 and 0.2857
- Cell index (Time 21.62 h): 0.3388 and 0.3663 and 0.3177 and 0.2891
- Cell index (Time 21.87 h): 0.3435 and 0.3699 and 0.3245 and 0.292
- Cell index (Time 22.12 h): 0.3489 and 0.3734 and 0.3274 and 0.297
- Cell index (Time 22.37 h): 0.3518 and 0.3813 and 0.3325 and 0.2971
